{
  "source": "patent US10499644B2",
  "about": "“Substituted oxadiazoles for combating phytopathogenic fungi” (BASF SE, priority 2015, dated 2019)",
  "key": {"Phakopsora pachyrhizi [1]": {"tested_on": "Phakopsora pachyrhizi", "test": "Curative control of soy bean rust on soy beans (glass house trial)", "assay_type": "in vivo, Phakopsora pachyrhizi on soy bean", "settings": "32 ppm active compound, sprayed 1 day after inoculation, assessed after 14 days; untreated plants 100%"}, "Phakopsora pachyrhizi [2]": {"tested_on": "Phakopsora pachyrhizi", "test": "Protective control of soy bean rust on soy beans (glass house trial)", "assay_type": "in vivo, Phakopsora pachyrhizi on soy bean", "settings": "32 ppm active compound, sprayed 2 days before inoculation, assessed after fourteen days; untreated plants 90%"}},
  "note": "Some entries share one result that the patent states for a list of compounds.",
  "data": [
    {"smiles": "CC(=O)NC1(c2ccc(-c3noc(C(F)(F)F)n3)cc2)CC1", "note": "[Ex-2, N-[1-[4-[5-(trifluoromethyl)-1,2,4-oxadiazol-3-yl]phenyl]-cyclopropyl]acetamide]", "values": [
      {"measurement": "diseased leaf area", "setting": "Phakopsora pachyrhizi [1]", "value": "at most 2%"},
      {"measurement": "diseased leaf area", "setting": "Phakopsora pachyrhizi [2]", "value": "at most 7%"}
    ]}
  ]
}
